Results are given in words; binding and its absence hold for the method and conditions named. In cells and extracts the contact can be indirect. Some results given as binding are weak or reduced against the parent protein; the word gives no strength.
Assays:
[1] = biological target: TERT (telomerase reverse transcriptase), catalytic subunit of telomerase (human) (UniProt O14746); assay: GST pull-down of 35S-methionine labeled TERT, SDS-PAGE, autoradiography
[2] = biological target: TERT (telomerase reverse transcriptase), catalytic subunit of telomerase (human) (UniProt O14746); assay: GST pull-down of 35S-methionine labeled TERT (FIG. 2)

Protein sequences, listed by entry. Tags and fused reporters are not part of them. Lines headed by an entry give the natural chain unless they say otherwise; changes in a name come on top.
UniProt O14746: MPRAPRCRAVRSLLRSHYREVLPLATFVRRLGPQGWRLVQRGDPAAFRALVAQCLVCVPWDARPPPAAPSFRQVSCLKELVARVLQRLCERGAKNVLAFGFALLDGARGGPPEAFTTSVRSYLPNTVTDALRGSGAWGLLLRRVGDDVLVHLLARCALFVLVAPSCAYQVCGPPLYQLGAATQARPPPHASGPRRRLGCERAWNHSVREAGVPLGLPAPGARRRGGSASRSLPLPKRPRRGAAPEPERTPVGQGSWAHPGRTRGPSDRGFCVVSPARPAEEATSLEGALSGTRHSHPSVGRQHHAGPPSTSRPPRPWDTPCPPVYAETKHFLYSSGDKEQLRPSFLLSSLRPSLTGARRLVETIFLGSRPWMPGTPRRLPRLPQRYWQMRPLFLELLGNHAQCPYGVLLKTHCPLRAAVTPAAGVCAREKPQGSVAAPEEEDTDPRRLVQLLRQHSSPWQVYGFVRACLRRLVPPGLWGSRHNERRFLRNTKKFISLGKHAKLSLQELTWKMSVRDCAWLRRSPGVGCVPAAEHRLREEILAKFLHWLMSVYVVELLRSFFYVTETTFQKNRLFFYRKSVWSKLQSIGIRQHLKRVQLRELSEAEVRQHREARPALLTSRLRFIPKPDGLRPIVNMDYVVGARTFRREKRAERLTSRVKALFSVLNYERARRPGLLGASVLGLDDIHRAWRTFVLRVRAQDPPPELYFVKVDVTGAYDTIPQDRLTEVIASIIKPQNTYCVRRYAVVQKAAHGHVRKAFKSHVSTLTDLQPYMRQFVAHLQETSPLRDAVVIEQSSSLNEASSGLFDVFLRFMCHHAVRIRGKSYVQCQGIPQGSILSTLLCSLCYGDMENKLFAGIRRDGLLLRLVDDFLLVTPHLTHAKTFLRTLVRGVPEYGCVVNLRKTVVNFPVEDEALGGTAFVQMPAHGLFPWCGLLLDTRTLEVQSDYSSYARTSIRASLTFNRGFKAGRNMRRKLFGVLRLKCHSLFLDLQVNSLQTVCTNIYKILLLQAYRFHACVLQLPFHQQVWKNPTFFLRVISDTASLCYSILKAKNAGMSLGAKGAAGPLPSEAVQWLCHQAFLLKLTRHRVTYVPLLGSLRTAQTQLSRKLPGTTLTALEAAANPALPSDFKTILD
UniProt Q16644: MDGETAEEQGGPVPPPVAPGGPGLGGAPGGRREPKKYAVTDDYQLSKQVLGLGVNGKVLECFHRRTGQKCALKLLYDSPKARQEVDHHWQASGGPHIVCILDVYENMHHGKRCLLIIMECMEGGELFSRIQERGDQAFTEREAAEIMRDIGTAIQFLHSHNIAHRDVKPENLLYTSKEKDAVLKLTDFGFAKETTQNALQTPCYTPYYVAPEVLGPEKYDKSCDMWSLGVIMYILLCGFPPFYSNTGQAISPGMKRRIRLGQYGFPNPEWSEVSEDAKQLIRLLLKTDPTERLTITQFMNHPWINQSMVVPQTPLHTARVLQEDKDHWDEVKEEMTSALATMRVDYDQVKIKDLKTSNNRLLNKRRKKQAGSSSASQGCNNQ

For “GST fusion MAPKAPK3 (N-terminal GST fusion human MAPKAPK3) (from UniProt Q16644 1-382) (enzyme)”, the binding [1] was “binds” and the binding [2] was “binds”.

Reference: patent publication US20070105796A1
